# Results taken from patent US8362022B2, “Selective subtype alpha 2 adrenergic agents and methods for use thereof” (Allergan, Inc., priority 2008, dated 2013).
# The chains behind the UniProt entries cited, without tags or fusion partners.
# UniProt P18825, whole entry: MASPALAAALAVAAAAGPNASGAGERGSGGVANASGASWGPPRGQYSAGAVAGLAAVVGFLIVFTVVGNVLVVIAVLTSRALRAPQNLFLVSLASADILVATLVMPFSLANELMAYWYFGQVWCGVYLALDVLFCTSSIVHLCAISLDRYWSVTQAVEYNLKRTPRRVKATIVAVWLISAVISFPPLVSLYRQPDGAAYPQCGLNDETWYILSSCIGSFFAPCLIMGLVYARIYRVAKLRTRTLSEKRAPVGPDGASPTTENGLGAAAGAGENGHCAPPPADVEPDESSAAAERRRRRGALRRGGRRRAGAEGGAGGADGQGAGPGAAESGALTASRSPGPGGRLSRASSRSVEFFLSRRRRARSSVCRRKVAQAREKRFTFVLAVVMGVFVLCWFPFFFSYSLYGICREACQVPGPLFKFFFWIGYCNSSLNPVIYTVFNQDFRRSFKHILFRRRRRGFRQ
# UniProt P35348, whole entry: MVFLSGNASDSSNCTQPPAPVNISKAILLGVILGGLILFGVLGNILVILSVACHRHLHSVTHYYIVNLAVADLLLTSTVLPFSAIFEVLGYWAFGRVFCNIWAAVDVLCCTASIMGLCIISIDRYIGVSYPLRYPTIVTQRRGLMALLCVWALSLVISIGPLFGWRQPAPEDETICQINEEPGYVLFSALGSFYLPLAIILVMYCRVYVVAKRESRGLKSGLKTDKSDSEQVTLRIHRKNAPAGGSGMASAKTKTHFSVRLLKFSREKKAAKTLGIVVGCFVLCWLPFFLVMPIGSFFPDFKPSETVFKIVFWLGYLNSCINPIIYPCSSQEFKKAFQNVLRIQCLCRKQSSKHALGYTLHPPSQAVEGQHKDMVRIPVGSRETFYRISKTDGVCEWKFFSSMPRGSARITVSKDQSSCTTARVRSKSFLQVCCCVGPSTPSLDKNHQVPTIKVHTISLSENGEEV
# UniProt P18089, whole entry: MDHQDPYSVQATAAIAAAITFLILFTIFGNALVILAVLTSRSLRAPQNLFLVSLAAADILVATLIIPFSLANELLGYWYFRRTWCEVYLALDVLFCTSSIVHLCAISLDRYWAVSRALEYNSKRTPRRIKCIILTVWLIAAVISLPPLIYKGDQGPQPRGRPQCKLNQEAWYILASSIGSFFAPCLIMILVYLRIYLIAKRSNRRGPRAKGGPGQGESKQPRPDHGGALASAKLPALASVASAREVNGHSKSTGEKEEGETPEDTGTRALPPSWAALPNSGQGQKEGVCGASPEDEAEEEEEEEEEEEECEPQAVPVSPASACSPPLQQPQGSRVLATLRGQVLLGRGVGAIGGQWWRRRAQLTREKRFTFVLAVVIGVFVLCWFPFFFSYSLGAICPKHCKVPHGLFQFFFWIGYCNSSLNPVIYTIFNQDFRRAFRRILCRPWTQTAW
# Tests used:
# Type in all cases: cell-based
# alpha 2C receptor = alpha 2C receptor (Homo sapiens, UniProt P18825); assay: RSAT assay (Receptor Selection and Amplification Technology), Alpha 2C; details: value in parentheses, ratio of maximal effect to that of brimonidine
# Alpha 1A = Alpha 1A (Homo sapiens, UniProt P35348); assay: RSAT assay (Receptor Selection and Amplification Technology), Alpha 1A; details: value in parentheses, ratio of maximal effect of drug to maximal effect of standard full agonist
# alpha 2B receptor = alpha 2B receptor (Homo sapiens, UniProt P18089); assay: RSAT assay (Receptor Selection and Amplification Technology), Alpha 2B; details: for Intrinsic Activity efficacy Alpha 2B: value in parentheses, ratio of maximal effect to that of brimonidine, Table 1
Compound,Intrinsic Activity efficacy Alpha 2C (alpha 2C receptor),Intrinsic Activity efficacy Alpha 1A (Alpha 1A),Intrinsic Activity efficacy Alpha 2B (alpha 2B receptor),"EC50 (alpha 2B receptor; read-out: potency nM (EC50) Alpha 2B, transfected NIH-3T3 cells with Gq/i5, Table 1)"
Clc1ccccc1C(Cc1ccncc1)N=C1NCCS1 (stereo not shown),1.0,1.0,,
Clc1ccccc1C(Cc1ccncc1)N=C1NCCO1 (stereo not shown),,,0.9,
COc1ccccc1C(Cc1cccnc1)N=C1NCCN1 (stereo not shown),,0.92,0.67,10 nM
COc1ccccc1C(Cc1ccncc1)N=C1NCCS1 (stereo not shown),,,1.0,

# Structures were worked out from names or drawings and are uncertain.
